Patent US5017557A, “Treatment of infertility with somatotrophin releasing factor” (Industria Farmaceutica Serono S.p.A., priority 1987, dated 1991)

Assay: RIA dosage of GRF immunoreactivity in human follicular and seminal fluid

## GRF: Somatotrophin releasing factor; measured as immunoreactivity by RIA, binding done with iodine labelled human GRF-44
Human follicular fluid
  Immunoreactivity to GRF: 60 pg/mL
Human seminal fluid
  Immunoreactivity to GRF: 140 pg/mL
